Assay results as given in US9850283B2, “Macrocyclic inhibitors of the PD-1/PD-L1 and CD80(B7-1)/PD-L1 protein/protein interactions” (BRISTOL-MYERS SQUIBB COMPANY, priority 2013, dated 2017).
At least one compound was matched to its structure with a doubt left. Some entries repeat one wording, which the source may state once for all of them. Positions of bridges follow the written chain, without caps; N, C: chain ends. Non-standard residues stand in square brackets, D forms with d. Residues, ends and D or L forms follow the SMILES beside them. ξ: configuration not given here. NMeNle = CCCC[C@H](NC)C(=O)O; NMeA = CN[C@@H](C)C(=O)O; ξP = O=C(O)C1CCCN1; Sar = CNCC(=O)O

Amino acid sequences for entries named in this document (tags omitted). Chains listed by the source or under a name are the forms on record and can include a tag or linker. Residues count along the entry.
UniProt Q9NZQ7, with tags, fused parts or gaps: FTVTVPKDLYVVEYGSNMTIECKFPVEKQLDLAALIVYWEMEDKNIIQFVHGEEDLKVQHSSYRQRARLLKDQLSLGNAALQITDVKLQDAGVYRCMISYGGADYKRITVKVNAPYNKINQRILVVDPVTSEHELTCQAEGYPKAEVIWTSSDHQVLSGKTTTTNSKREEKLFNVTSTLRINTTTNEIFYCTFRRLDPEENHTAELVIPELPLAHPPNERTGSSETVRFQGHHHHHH
UniProt Q9NZQ7, 19-290: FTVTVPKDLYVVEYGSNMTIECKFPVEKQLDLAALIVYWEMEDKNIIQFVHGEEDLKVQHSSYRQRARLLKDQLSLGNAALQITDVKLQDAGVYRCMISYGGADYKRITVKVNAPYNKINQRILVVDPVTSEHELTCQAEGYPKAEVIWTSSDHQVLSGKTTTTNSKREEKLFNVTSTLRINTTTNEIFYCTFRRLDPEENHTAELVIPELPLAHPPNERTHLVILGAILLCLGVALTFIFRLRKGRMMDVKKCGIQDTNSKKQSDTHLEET

How the values were obtained:
[1] = target: PD-1/PD-L1; test: PD-1/PD-L1 HTRF Binding Assay (IC50, nM) Binding Pairs | PD-1/PD-L1
[2] = target: T1, PD-L1 (Homo sapiens, UniProt Q9NZQ7); test: Biotinylated Compound No. 71/PD-L1 binding (competition) assay, HTRF; settings: FIG. 8 and 9
T1 construct: made in house; host or cells: HEK293T

[3] = target: CD80/PD-L1; test: PD-1/PD-L1 HTRF Binding Assay (IC50, nM) Binding Pairs | CD80/PD-L1
[4] = target: T2, LK35.2-hPD-L1 cells / PE-labeled PD-1-Ig (Homo sapiens, UniProt Q9NZQ7); test: LK35.2-hPD-L1 cell binding high-content screening assay; type: cell-based; settings: cell line not given, numeric value, read-out: CBA IC50 values
T2 construct: expressed in transfected cells; host or cells: LK35.2 mouse B cell line
Method: LK35.2-hPD-L1 Cell Binding High-Content Screening Assay. Phycoerythrin (PE) was covalently linked to the Ig epitope tag of human PD-1-Ig and fluorescently-labeled PD-1-Ig was used for binding studies with a mouse B cell line (LK35.2) stably over-expressing human PD-L1 (LK35.2-hPD-L1). Briefly, 3×10^3 LK35.2-hPD-L1 cells were seeded into 384 well plates in 20 ul of RPMI supplemented with 10% fetal calf serum and cultured overnight. 125 nl of compound was added to cells, followed by 5 ul of PE-labeled PD-1-Ig (1 nM final), diluted in RPMI supplemented with 10% fetal calf serum, followed by incubation at 37° C. for 1 h. […] Cells were washed 3× in 100 ul of dPBS followed by final addition of 15 ul of dPBS. Data was collected and processed using a Cell Insight NXT High Content Imager and associated software.

[5] = target: T3, Human PD-L1/PD-1 (Homo sapiens, UniProt Q9NZQ7); test: HTRF PD-1-Ig/PD-L1-His binding assay (human PD-L1); settings: numeric value
T3 construct: made in house; host or cells: HEK293T
Excerpt: The ability of the macrocyclic peptides of the present disclosure to bind to PD-L1 was investigated using a PD-1/PD-L1 Homogenous Time-Resolved Fluorescence (HTRF) binding assay.
Homogenous Time-Resolved Fluorescence (HTRF) Assays of Binding of Soluble PD-1 to Soluble PD-L1. Soluble PD-1 and soluble PD-L1 refers to proteins with carboxyl-end truncations that remove the transmembrane-spanning regions and are fused to heterologous sequences, specifically the Fc portion of the human immunoglobuling G sequence (Ig) or the hexahistidine epitope tag (His). All binding studies were performed in an HTRF assay buffer consisting of dPBS supplemented with 0.1% (w/v) bovine serum albumin and 0.05% (v/v) Tween-20. […] PD-L1 fusion proteins from either human, cynomologous macaques, or mouse were used. HTRF detection was achieved using europium crypate-labeled anti-Ig monoclonal antibody (1 nM final) and allophycocyanin (APC) labeled anti-His monoclonal antibody (20 nM final). Antibodies were diluted in HTRF detection buffer and 5 μl was dispensed on top of binding reaction.

Row | SMILES | IC50 [1] | blocking the binding of biotinylated Compound No. 71 peptide to PD-L1 [2] | IC50 [3] | IC50 [4] | IC50 [5]
1 | CCCC[C@H]1C(=O)N(C)[C@@H](CCCC)C(=O)N[C@@H](CCCNC(=N)N)C(=O)N[C@H](C(=O)NCC(N)=O)CSCC(=O)N[C@@H](Cc2ccccc2)C(=O)N(C)[C@@H](C)C(=O)N[C@@H](CC(N)=O)C(=O)N2CCCC2C(=O)N[C@@H](Cc2cnc[nH]2)C(=O)N[C@@H](CC(C)C)C(=O)N(C)CC(=O)N[C@@H](Cc2c[nH]c3ccccc23)C(=O)N[C@@H](CO)C(=O)N[C@@H](Cc2c[nH]c3ccccc23)C(=O)N1C (stereo partly shown) [Compound No. 1] ({CH2CO}-F[NMeA]N[ξP]HL[Sar]WSW[NMeNle][NMeNle]RCG-NH2; thioether N-14) | 5.6 nM | capable of blocking | 7.04 nM |  | 
2 | CCCC[C@H]1C(=O)N(C)[C@@H](CCCC)C(=O)N[C@@H](CC(C)C)C(=O)N[C@H](C(=O)NCC(N)=O)CSCC(=O)N[C@@H](Cc2ccc(O)cc2)C(=O)N(C)[C@@H](C)C(=O)N[C@@H](CCC(=O)O)C(=O)N2CCC[C@H]2C(=O)N[C@@H](CCCN)C(=O)N[C@@H](CC(C)C)C(=O)N2CCC[C@H]2C(=O)N[C@@H](Cc2c[nH]c3ccccc23)C(=O)N[C@@H](CO)C(=O)N[C@@H](Cc2c[nH]c3ccccc23)C(=O)N1C [Example 10510] |  |  |  | 16.6 nM | 8.47 nM
3 | CCCC[C@H]1C(=O)N(C)[C@@H](CCCC)C(=O)N[C@@H](CC(C)C)C(=O)N[C@H](C(=O)NCC(N)=O)CSCC(=O)N[C@@H](Cc2ccccc2)C(=O)N(C)[C@@H](C)C(=O)N[C@@H](CC(N)=O)C(=O)N2CCCC2C(=O)N[C@@H](Cc2cnc[nH]2)C(=O)N[C@@H](Cc2c[nH]cn2)C(=O)N[C@@H](CO)C(=O)N[C@@H](Cc2c[nH]c3ccccc23)C(=O)N[C@@H](CCCNC(=N)N)C(=O)N[C@@H](Cc2c[nH]c3ccccc23)C(=O)N1C (stereo partly shown) [Compound No. 2] ({CH2CO}-F[NMeA]N[ξP]HHSWRW[NMeNle][NMeNle]LCG-NH2; thioether N-14) | 14.4 nM | capable of blocking | 15.2 nM |  | 
4 | CC[C@H](C)[C@@H]1NC(=O)[C@H](CC(C)C)NC(=O)[C@H](Cc2ccccc2)NC(=O)CSC[C@@H](C(=O)NCC(N)=O)NC(=O)[C@H](CCCNC(=N)N)NC(=O)[C@H](Cc2ccccc2)NC(=O)[C@H](C(C)C)NC(=O)[C@H](CCCNC(=N)N)NC(=O)[C@H](CC(=O)O)NC(=O)[C@H](CCCNC(=N)N)NC(=O)[C@H]([C@@H](C)CC)NC(=O)[C@H](C(C)C)NC1=O [Compound No. 99] (HELM PEPTIDE1{[O=C(C[*:3])[*:2]].F.L.I.V.I.R.D.R.V.F.R.C.G.[am]}$PEPTIDE1,PEPTIDE1,1:R3-13:R3$$$V2.0) | 90.9 nM | capable of blocking | 78.2 nM |  | 
5 | CCCC[C@H]1C(=O)N(C)CC(=O)N[C@@H](CC(=O)O)C(=O)N[C@@H](C(C)C)C(=O)N(C)[C@@H](Cc2ccccc2)C(=O)N[C@@H](Cc2ccc(O)cc2)C(=O)N(C)CC(=O)N[C@@H](Cc2c[nH]c3ccccc23)C(=O)N[C@@H](Cc2ccc(O)cc2)C(=O)N[C@@H](CC(C)C)C(=O)N[C@H](C(=O)NCC(N)=O)CSCC(=O)N[C@@H](Cc2ccccc2)C(=O)N(C)[C@@H](Cc2ccccc2)C(=O)N1C [Compound No. 71] (HELM PEPTIDE1{[O=C(C[*:3])[*:2]].F.[meF].[CCCC[C@@H](C(=O)[*:2])N(C)[*:1]].[Sar].D.V.[meF].Y.[Sar].W.Y.L.C.G.[am]}$PEPTIDE1,PEPTIDE1,1:R3-14:R3$$$V2.0) | 1.03 nM |  | 3.57 nM |  | 
